According to paper PMC9371919:
These are yes or no findings as the source states them, for the method shown. Some entries that bind do so weakly or less than the wild type.

Amino acid sequences for entries named in this document (tags omitted). A change or cut given only in a name is not applied to a line headed by its entry.
UniProt O52760: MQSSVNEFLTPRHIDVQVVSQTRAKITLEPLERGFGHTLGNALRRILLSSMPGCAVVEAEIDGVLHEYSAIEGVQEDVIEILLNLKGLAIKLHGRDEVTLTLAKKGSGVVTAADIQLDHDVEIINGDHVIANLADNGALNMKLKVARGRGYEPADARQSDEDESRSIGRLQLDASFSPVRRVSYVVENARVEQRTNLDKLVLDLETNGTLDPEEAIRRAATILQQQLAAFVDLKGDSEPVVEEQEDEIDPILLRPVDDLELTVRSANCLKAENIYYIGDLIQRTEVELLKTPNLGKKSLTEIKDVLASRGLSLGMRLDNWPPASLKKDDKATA
UniProt Q51561: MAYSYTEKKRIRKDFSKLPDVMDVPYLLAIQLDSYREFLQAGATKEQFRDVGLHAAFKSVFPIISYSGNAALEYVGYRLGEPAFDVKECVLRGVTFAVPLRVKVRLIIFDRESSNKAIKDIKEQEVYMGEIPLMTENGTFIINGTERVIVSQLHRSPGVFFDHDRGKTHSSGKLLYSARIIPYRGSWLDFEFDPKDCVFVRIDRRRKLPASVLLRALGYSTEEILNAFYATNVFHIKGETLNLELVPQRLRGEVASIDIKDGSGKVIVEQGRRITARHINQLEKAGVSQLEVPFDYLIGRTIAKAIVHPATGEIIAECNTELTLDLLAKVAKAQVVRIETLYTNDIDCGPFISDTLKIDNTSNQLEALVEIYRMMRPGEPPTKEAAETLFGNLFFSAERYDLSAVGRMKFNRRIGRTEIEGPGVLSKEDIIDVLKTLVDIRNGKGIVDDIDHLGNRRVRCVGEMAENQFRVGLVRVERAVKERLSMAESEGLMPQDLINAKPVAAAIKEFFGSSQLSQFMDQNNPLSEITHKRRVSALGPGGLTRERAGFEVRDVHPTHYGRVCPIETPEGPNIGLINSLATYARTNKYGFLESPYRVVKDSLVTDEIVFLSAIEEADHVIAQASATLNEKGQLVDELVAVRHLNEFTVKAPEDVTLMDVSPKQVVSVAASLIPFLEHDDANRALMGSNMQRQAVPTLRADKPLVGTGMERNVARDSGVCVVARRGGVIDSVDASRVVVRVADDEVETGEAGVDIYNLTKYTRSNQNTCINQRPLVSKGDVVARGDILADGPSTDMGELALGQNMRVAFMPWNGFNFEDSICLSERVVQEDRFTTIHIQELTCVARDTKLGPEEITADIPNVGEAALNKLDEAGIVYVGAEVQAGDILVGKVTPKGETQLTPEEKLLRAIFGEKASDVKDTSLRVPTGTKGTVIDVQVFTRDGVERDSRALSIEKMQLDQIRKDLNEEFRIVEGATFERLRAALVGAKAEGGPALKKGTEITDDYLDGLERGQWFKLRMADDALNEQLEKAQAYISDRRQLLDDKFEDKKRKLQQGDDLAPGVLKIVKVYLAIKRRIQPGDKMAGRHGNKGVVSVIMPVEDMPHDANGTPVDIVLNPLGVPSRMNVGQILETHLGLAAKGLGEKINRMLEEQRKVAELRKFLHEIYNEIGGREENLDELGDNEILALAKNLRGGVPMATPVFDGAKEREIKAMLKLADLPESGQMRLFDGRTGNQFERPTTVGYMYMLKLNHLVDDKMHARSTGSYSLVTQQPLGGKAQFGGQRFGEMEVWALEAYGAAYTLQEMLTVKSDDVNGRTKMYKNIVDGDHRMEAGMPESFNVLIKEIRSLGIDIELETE
UniProt Q9HWC9: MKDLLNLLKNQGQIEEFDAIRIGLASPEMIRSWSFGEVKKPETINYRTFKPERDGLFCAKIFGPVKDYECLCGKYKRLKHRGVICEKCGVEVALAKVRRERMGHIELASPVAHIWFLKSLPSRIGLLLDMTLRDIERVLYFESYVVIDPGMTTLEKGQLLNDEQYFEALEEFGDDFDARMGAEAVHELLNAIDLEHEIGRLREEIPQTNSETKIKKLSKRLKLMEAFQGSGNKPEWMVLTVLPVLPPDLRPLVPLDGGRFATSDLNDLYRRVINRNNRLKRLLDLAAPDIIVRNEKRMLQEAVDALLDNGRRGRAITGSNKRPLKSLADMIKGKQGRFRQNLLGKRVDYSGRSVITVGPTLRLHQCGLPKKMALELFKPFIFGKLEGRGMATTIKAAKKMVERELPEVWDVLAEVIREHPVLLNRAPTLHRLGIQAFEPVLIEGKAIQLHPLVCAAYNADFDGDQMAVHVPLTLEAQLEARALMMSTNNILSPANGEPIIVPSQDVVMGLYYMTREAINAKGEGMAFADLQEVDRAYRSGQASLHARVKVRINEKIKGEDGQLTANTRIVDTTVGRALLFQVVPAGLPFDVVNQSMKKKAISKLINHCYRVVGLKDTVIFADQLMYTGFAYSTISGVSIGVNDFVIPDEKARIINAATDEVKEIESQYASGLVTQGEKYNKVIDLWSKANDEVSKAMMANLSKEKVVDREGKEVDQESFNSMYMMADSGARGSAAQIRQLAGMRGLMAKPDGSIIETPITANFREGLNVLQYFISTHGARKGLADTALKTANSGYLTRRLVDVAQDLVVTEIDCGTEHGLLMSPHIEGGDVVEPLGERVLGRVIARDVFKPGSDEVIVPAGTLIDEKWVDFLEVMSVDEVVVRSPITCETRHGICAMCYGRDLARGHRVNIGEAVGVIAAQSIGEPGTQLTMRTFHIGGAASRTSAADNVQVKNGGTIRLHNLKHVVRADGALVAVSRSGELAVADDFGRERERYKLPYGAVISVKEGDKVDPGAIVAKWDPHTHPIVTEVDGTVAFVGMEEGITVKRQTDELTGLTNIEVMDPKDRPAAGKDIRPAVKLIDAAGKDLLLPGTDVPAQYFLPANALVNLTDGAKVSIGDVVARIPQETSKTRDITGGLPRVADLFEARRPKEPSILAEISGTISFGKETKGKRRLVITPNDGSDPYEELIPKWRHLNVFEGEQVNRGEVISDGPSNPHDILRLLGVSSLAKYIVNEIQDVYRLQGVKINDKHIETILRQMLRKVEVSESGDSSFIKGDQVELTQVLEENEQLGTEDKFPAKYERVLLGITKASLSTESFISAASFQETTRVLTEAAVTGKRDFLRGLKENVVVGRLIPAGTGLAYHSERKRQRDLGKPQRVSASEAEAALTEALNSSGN
UniProt B7V5M8: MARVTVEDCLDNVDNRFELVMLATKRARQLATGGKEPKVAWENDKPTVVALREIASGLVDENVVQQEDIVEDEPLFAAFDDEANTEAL
UniProt P26480: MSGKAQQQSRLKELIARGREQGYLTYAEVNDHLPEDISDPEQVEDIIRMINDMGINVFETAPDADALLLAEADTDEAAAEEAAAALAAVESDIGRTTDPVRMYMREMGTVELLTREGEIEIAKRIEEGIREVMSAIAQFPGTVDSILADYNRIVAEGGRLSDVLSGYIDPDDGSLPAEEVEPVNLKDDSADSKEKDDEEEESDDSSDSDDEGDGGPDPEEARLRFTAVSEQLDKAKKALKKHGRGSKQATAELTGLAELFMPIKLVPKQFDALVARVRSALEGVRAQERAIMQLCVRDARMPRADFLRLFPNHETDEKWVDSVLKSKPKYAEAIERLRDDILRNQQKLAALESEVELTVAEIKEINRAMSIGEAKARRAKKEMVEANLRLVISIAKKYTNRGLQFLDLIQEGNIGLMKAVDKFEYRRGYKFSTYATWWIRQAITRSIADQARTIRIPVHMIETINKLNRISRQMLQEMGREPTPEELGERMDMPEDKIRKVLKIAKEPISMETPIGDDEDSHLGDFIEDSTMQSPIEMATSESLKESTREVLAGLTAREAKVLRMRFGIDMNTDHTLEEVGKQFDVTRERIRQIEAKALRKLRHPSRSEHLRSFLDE

Target: Pae RNAP core enzyme (Pseudomonas aeruginosa) (UniProt O52760+Q51561+Q9HWC9+B7V5M8)
Test: SEC; Pae RNAP core enzyme and Pae σ70 incubated 1:3 for 1 h at 4°C, then HiLoad 16/600 Superdex 200 in 10 mM HEPES pH 7.5, 50 mM KCl; both purified

Question: For Pae σ^70 (from UniProt P26480 1-617), which binding is on record?
Answer: binds
